Laboratory results as given in PubChem BioAssay AID1347075 (National Center for Advancing Translational Sciences (NCATS), 2019).
In all, about 400,000 compounds went through this assay and about 5,500 (1.4%) were called active. Inconclusive results, whose numbers are uncertain, are shown with a selection of clear calls. Calls follow the shape of the dose curve; as a rule, active = well fitted cell-killing curve with a large enough effect; inconclusive = small, poorly fitted or top-dose-only effect, or effect the other way; inactive = flat fitted curve, though single readings scatter. Potencies beside an inconclusive call are fits to weak or partial responses and may not hold up.

Assay: qHTS assay for MDR1-selective chemotherapeutics: Primary screen using the parental adenocarcinoma cell KB-3-1; also: nearly all actives have a fitted effect of over 60% in size
Settings: KB-3-1 viability, CellTiter-Glo ATP luminescence, 72 h; activity change, negative = cytotoxic: at 46.1 µM (top of the series)
In short: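 Cells are dispensed, compounds pinned in, plates held at 37 °C for 72 h, then CellTiter-Glo is added and luminescence read after 10 minutes. Cell line: parental KB-3-1 in phenol-red-free DMEM, 10% FBS.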
% is scaled to controls: 0 for no effect and ±100 for the full control effect; potency is read from the fitted curve at half-maximal effect.

| Compound | Potency | activity change, negative = cytotoxic |
| --- | --- | --- |
| Cc1ccc(S(=O)(=O)NCC2(c3ccccc3)CCN(C)CC2)cc1 | inactive |  |
| CC(c1nc2ccccc2[nH]1)n1c(-c2ccncc2)nc2ccccc21 (stereo unspecified) | inconclusive: 29.1 µM [rising, single point] |  |
| Cc1ccc(CNC(=O)/C=C/c2ccc(S(=O)(=O)N3CCOCC3)cc2)cc1 | inactive |  |
| O=C(N/N=C/c1c[nH]c2ccccc12)C1COc2ccccc2O1 (stereo unspecified) | active: 5.8 µM |  |
| CNC(=O)COC(=O)c1c2c(nc3ccccc13)CCC2 | inactive |  |
| CC(=O)c1cccc(-c2ccnc3c2CC(C(=O)NCc2ccc(F)c(F)c2)O3)c1 (stereo unspecified) | active: 5.17 µM |  |
| Cc1ccc(-c2cc(-c3ccccc3C)[nH]n2)c(O)c1 | active: 20.6 µM |  |
| CC(=O)Nc1ccc(SCc2ncc(-c3ccccc3)o2)cc1 | inconclusive: 0.517 µM [rising, full curve, poor fit] |  |
| N#Cc1ccc(-c2nc3ccc(Br)cn3c2Cc2ccccc2)cc1 | active: 20.6 µM |  |
| OC(CSc1ccc(F)cc1)CN1CCN(c2ccccc2)CC1 (stereo unspecified) |  | inconclusive: 2.73% |
| Cc1noc(C(=O)Nc2cccnc2)c1Cl | inactive |  |
| COC(=O)/C(=C\c1c(OC)cc(OC)cc1OC)C(=O)c1ccc2c(c1)OCO2 | inconclusive: 0.013 µM [rising, full curve] |  |
| CC(C)Cc1nc2oc3c(NCC4CCCO4)ncnc3c2c2c1CCC2 (stereo unspecified) | inconclusive: 0.517 µM [rising, full curve, poor fit] |  |
| Cc1ccc(C(=O)Nc2ccncc2)cc1[N+](=O)[O-] | inactive |  |
| COc1ccccc1-c1cnc(C(O)c2ccc(Cl)c(Cl)c2)[nH]1 (stereo unspecified) | inconclusive: 29.1 µM [cytotoxic, single point] |  |
| COc1ccc(CCN2CC(C(=O)N3CCCCCC3)CCC2=O)cc1 (stereo unspecified) | inconclusive: 0.0326 µM [cytotoxic, full curve] |  |
| O=c1[nH]c(NCc2ccco2)nnc1Cc1ccccc1Cl | active: 5.8 µM |  |
| COC(=O)[C@@]12C[C@@H](CC(=O)NCc3cccc(C(F)(F)F)c3)C(=O)N(CCc3ccc(OC)c(OC)c3)C1=CCC(C)(C)C2 | inconclusive: 29.1 µM [cytotoxic, single point] |  |
| CC1N=C2c3ccccc3N=C(SCc3cc(=O)n4cc(Cl)ccc4n3)N2C1=O (stereo unspecified) | inconclusive: 0.0411 µM [rising, full curve] |  |
| Cc1ccccc1-n1c(-c2csc(C)c2C)n[nH]c1=S | inconclusive: 29.1 µM [cytotoxic, single point] |  |
| CC(C)(C)C(=O)Cn1c(=N)n(Cc2ccccc2Cl)c2ccccc21 | inconclusive: 20.6 µM [cytotoxic, partial curve, poor fit] |  |
| CC(C)C[C@H]1CNC(=S)N1C[C@H]1CCCN1C[C@H](Cc1ccccc1)N1C[C@H](Cc2ccc(O)cc2)N(CC2CCCCC2)C1=S | inconclusive: 29.1 µM [cytotoxic, single point] |  |
| Cc1c(Cc2ccccc2)c(=O)oc2cc(OCC(=O)c3ccccc3)ccc12 | inconclusive: 18.4 µM [cytotoxic, single point] |  |
| NS(=O)(=O)c1ccc(NCc2cc(Cl)ccc2OCc2ccccc2F)cc1 | inconclusive: 16.4 µM [cytotoxic, single point] |  |

| Compound | Potency | activity change, negative = cytotoxic |
| --- | --- | --- |
| Cc1ccc(-c2c(C(=O)N3CCN(c4cccc(C)c4)C(C)C3)oc(=O)c3ccccc23)cc1 (stereo unspecified) | inconclusive: 29.1 µM [cytotoxic, partial curve, poor fit] |  |
| CCOc1ccc(C(=O)CCC(=O)NNC(=O)CCN2CCN(c3ccccc3)CC2)cc1 | inconclusive: 29.1 µM [cytotoxic, single point] |  |
| CCOc1ccc(C(=O)Nc2ccc(N3CCN(C(=O)c4ccco4)CC3)cc2)cc1Br | inconclusive: 29.1 µM [cytotoxic, single point] |  |
| CCC(C)NCCOc1ccc(C(C)(C)c2ccccc2)cc1 (stereo unspecified) | inconclusive: 23.1 µM [cytotoxic, single point] |  |
| Cc1ccc(-c2cc[n+](Cc3ccccc3)cc2)cc1 | inconclusive: 29.1 µM [cytotoxic, partial curve, poor fit] |  |
| NC(=O)[C@@H]1CC2(CC(c3cccc(NC(=O)CC(c4ccccc4)c4ccccc4)c3)=NO2)CN1C(=O)c1ccc(Cl)cc1 (stereo partly specified) | inconclusive: 18.4 µM [cytotoxic, single point] |  |
| O=C(CSCC(=O)NC1CCCC1)Nc1ccccc1 | inconclusive: 0.0231 µM [rising, full curve] |  |
| COc1ccccc1C(=O)Nc1ccc2c(c1)CCCN2C(=O)c1ccccc1 | active: 18.4 µM |  |
| Cc1ccc(S(=O)(=O)N2CCN(c3ccccc3)CC2)c(C)c1 | inconclusive: 29.1 µM [cytotoxic, single point] |  |
| Cc1nonc1C(=O)N/N=C/c1ccc([N+](=O)[O-])o1 | inconclusive: 18.4 µM [cytotoxic, single point] |  |
| CCCCCCC(=O)Nc1nc(C)c(-c2csc(Nc3ccc(Cl)cc3)n2)s1 | inconclusive: 20.6 µM [cytotoxic, single point] |  |
| Cc1ccc(NC(=S)c2nc3ccccc3[nH]2)cc1 | inconclusive: 29.1 µM [cytotoxic, single point] |  |
| Cc1ccc(-c2cc(-c3nnc(SCC(=O)NC(C)C(C)C)n3N)c3ccccc3n2)cc1 (stereo unspecified) | inconclusive: 29.1 µM [cytotoxic, single point] |  |
| O=C(N/N=C/c1c[nH]c2ccc(Br)cc12)c1ccc2c(c1)OCO2 | inconclusive: 18.4 µM [cytotoxic, single point] |  |
| CN1CCN(c2ccc([N+](=O)[O-])c(Sc3nc4ccccc4[nH]3)c2)CC1 | inconclusive: 29.1 µM [rising, single point] |  |
| CCN(CC)CCCNc1cc(-c2ccccc2)nc(C)n1 | inactive |  |
| COCCNC(=O)C1CCCN(Cc2ccc(C)cc2)CC1 (stereo unspecified) | inactive |  |
| Cn1c(C(=O)N2CCN(c3nc4ccccc4s3)CC2)cc2sccc21 | inactive |  |
| O=P(c1ccccc1)(c1ccccc1)c1cc(S(=O)(=O)O)ccc1O | inactive |  |
| COc1ccc(Cl)cc1Nc1cc(C)nc2ccccc12 | inconclusive: 23.1 µM [cytotoxic, partial curve] |  |
| COc1ccc(C(=O)C(CO)Oc2ccccc2OC)cc1OC (stereo unspecified) | inactive |  |
| Cc1ccc(-c2ccc(=O)n(Cc3cccc(Br)c3)n2)cc1 | inconclusive: 18.4 µM [cytotoxic, partial curve] |  |
| C=CCNC(=O)CN1c2cccc3cccc(c23)S1(=O)=O |  | inconclusive: 4.66% |
| Cc1ccc(N(CC(=O)Nc2cccc(Cl)c2C)S(=O)(=O)c2c(C)noc2C)cc1 | inconclusive: 16.4 µM [cytotoxic, partial curve, poor fit] |  |

| Compound | Potency | activity change, negative = cytotoxic |
| --- | --- | --- |
| C=C(CC)C(=O)c1ccc(OCC(=O)O)c(Cl)c1Cl | inactive |  |
| COc1ccc(Nc2nc(Nc3ccc(OC)cc3)nc(SC3=NCCS3)n2)cc1 | inconclusive: 23.1 µM [cytotoxic, single point] |  |
| COc1cccc(C(=O)Nc2ncc3c(n2)CC(c2ccc(OC)cc2OC)CC3=O)c1 (stereo unspecified) | inconclusive: 7.31 µM [cytotoxic, partial curve, poor fit] |  |
| COC(=O)Nc1ccc(S(=O)(=O)N2CCC(Cc3ccccc3)CC2)cc1 | inactive |  |
| O=C(Nc1ccc2c(c1)OCCO2)C1CCN(c2nnnn2-c2ccccc2)CC1 | inconclusive: 29.1 µM [cytotoxic, single point] |  |
| CCOc1ccc(CCNC(=O)C2CCN(Cc3nc(-c4ccc(OC)c(OC)c4)oc3C)CC2)cc1OCC | inactive |  |
| COc1ccc(-n2c(/C=C/c3cccc(C(F)(F)F)c3)nc3ccccc3c2=O)cc1Cl | inconclusive: 20.6 µM [cytotoxic, single point] |  |
| Cn1cc(S(=O)(=O)N2CCCCCC2)cc1C(=O)N1CCN(c2cccc(C(F)(F)F)c2)CC1 | inconclusive: 20.6 µM [cytotoxic, single point] |  |
| Cc1cc(C)nc(/N=C(\N)N(Cc2ccccc2)Cc2ccccc2)n1 | inactive |  |
| CCOC(=O)C1CCCN(C(=O)c2cc3cc(OC)c(OC)cc3[nH]2)C1 (stereo unspecified) | inactive |  |
| CS(=O)(=O)c1ccc(-n2nnc3ccccc32)c([N+](=O)[O-])c1 | inconclusive: 4.61 µM [rising, full curve] |  |
| CN(C)c1ccc(NC(=O)c2ccc(COc3cccc(Cl)c3)o2)cc1 | inconclusive: 29.1 µM [cytotoxic, single point] |  |
| CCN(N=O)c1ccc(C=C2C=Cc3ccccc32)cc1 | inactive |  |
| N#Cc1c(N)nc2c(c1-c1cccc(O)c1)CCCCCC2 | inactive |  |
| COc1ccc(-c2cc(C(=O)O)[nH]n2)cc1OC | active: 23.1 µM |  |
| Cc1ccsc1/C=N/NC(=O)c1nnn(-c2nonc2N)c1C(C)C | inactive |  |
| NS(=O)(=O)c1ccc(NC(=O)c2cccc3cc4ccccc4nc23)cc1 | inconclusive: 29.1 µM [cytotoxic, single point] |  |
| OCC1(Cc2cccc(F)c2)CCN(Cc2cccc3nccnc23)CC1 | inconclusive: 0.0291 µM [rising, full curve] |  |
| Cn1cnnc1SCc1ccc(C(=O)N=Nc2c(O)n(C)c3ccccc23)cc1 | inactive |  |
| Cc1ccc(Nc2nnc(SCC(=O)NC3CCS(=O)(=O)C3)s2)c(C)c1 (stereo unspecified) |  | inconclusive: 7.98% |
| CCOc1ccc(CN(C(=O)c2ccccn2)c2ccc(OC)c(Cl)c2)cc1 | inconclusive: 29.1 µM [cytotoxic, single point] |  |
| CC(C)c1ccc(NC(=O)Nc2cnccn2)cc1 | active: 4.11 µM |  |
| COc1ccccc1CN(Cc1cc2cc(C)ccc2[nH]c1=O)Cc1nnnn1Cc1ccco1 | inconclusive: 16.4 µM [cytotoxic, single point] |  |

Individual results from the results shown:
Potency with CCOC(=O)C1CCCN(C(=O)c2cc3cc(OC)c(OC)cc3[nH]2)C1 (stereo unspecified) reads inactive
Potency with CN(C)c1ccc(NC(=O)c2ccc(COc3cccc(Cl)c3)o2)cc1 reads inconclusive: 29.1 µM [cytotoxic, single point]

Part of the list above, field by field.
COc1cccc(C(=O)Nc2ncc3c(n2)CC(c2ccc(OC)cc2OC)CC3=O)c1 (stereo unspecified)
  Potency: inconclusive: 7.31 µM [cytotoxic, partial curve, poor fit]
Cc1cc(C)nc(/N=C(\N)N(Cc2ccccc2)Cc2ccccc2)n1
  Potency: inactive
N#Cc1c(N)nc2c(c1-c1cccc(O)c1)CCCCCC2
  Potency: inactive
NS(=O)(=O)c1ccc(NC(=O)c2cccc3cc4ccccc4nc23)cc1
  Potency: inconclusive: 29.1 µM [cytotoxic, single point]
